PubChem BioAssay AID504834 (National Center for Advancing Translational Sciences (NCATS), 2011)
About 22,000 (6.9%) of roughly 320,000 compounds were called active. Inconclusive means that the source gave no clear call. Such entries were picked first, then a sample of the others. The call rests on the fitted dose curve; in most records, active means well fitted inhibition curve with a large enough effect; inconclusive means small, poorly fitted or top-dose-only effect, or another doubt; inactive means no such curve, though single readings can be large or run the other way. A potency beside an inconclusive call is a rough fit, not a confirmed value.

Experiment: Primary qHTS for delayed death inhibitors of the malarial parasite plastid, 96 hour incubation
Settings: P. falciparum luciferase reporter growth; series mostly up to 28.7 µM; activity change, negative = inhibition: at the top concentration
Outline: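 Delayed-death screen, second-generation endpoint: infected erythrocytes, 2% hematocrit, 0.05% parasitemia final; 96 hours at 37 C, 5% CO2; luciferase detection reagent; luminescence decrease equals reduced growth.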
On the % scale 0 is the no-effect control and ±100 the full control effect; potency means the concentration at half of the fitted maximal effect.

Compound | Potency | activity change, negative = inhibition
COc1ccccc1CC(NC(C)=O)C(=O)NC1CCN(C(=O)c2ccc([N+](=O)[O-])cc2)CC1 (stereo unspecified) | active: 6.57 µM | 
CCOc1cc(/C=N/NC(N)=O)cc(Br)c1OCC(=O)Nc1ccccc1C |  | inactive: 9.34% [at 5.75 µM]
CC(C)CN(CC(C)C)S(=O)(=O)N1CCC(C(=O)NCc2ccccn2)CC1 | inconclusive: 3.7 µM [inhibitor, partial curve] | 
Cc1ccc(OCc2cc(C(=O)N3CCCCCCC3)no2)cc1C | active: 1.65 µM | 
Cc1ccc(N=C2NC(=O)/C(=C/c3cccnc3)S2)c(C)c1 | inconclusive: 11.7 µM [inhibitor, partial curve, poor fit] | 
O=C(CN1C(=O)COc2ccc(S(=O)(=O)N3CCCC3)cc21)N1CCCC1 | inconclusive: 5.22 µM [inhibitor, partial curve] | 
CCOc1ccc(N(Cc2cc3ccc(C)cc3[nH]c2=O)C(=O)COC)cc1 | inconclusive: 0.165 µM [inhibitor, full curve, poor fit] | 
O=C(Nc1nnc(C2CC2)s1)c1cc(-c2ccccc2)nn1-c1ccccc1 | inconclusive: 4.65 µM [inhibitor, partial curve] | 
CCC(C)(C)NC(=O)CN(C(=O)CCC(=O)Nc1nccs1)c1ccc2c(c1)OCO2 |  | inactive: -16.6%
Cc1ccnc(NC(=O)c2ccc(N3C(=O)CCC3=O)cc2)c1 |  | inactive: 22.2%
CCOC(=O)c1sc(NC(=O)c2cc(-c3cccc(O)c3)on2)c(C(=O)OCC)c1C | inconclusive: 18.5 µM [inhibitor, single point] | 
COC(=O)c1ccc2c(=O)n(CCCCCC(=O)NCc3ccccn3)c(=O)[nH]c2c1 |  | inactive: 10%
COC(=O)c1ccc(C(C(=O)NC2CCCCC2)N(CCN2CCOCC2)C(=O)Cc2cccs2)cc1 (stereo unspecified) | inconclusive: 9.28 µM [inhibitor, partial curve, poor fit] | 
CCN1C(=O)/C(=C2\C=Cc3ccccc3N2CC)SC1=S | inconclusive: 1.65 µM [inhibitor, partial curve, poor fit] | 
O=C1c2ccccc2C(=O)c2c1ccc(O)c2O |  | inactive: 16.1%
CC(Oc1ccccc1)C(=O)Nc1nc2c(s1)C(=O)CC(C)(C)C2 (stereo unspecified) |  | inactive: -17.9%
O=C1NCCNC1(c1c[nH]c2ccccc12)C(F)(F)F (stereo unspecified) | active: 1.04 µM | 
O=C(NNC1CC(=O)N(c2ccccc2)C1=O)c1ccco1 (stereo unspecified) | inconclusive: 11.7 µM [inhibitor, single point] | 
Cc1ccc(C)c(Cc2c(C)nc(C)[nH]c2=O)c1 | inconclusive: 13.1 µM [inhibitor, partial curve, poor fit] | 
CC1CCc2sc(C(=O)NNC(=O)c3ccncc3)cc2C1 (stereo unspecified) |  | inactive: 6.91%
Nc1nc(N)nc(-c2ccccn2)n1 | inconclusive: 4.15 µM [inhibitor, single point] | 
CC(C)(C)N(Cc1ccccc1)C(=O)COC(=O)CCN1C(=O)C2CC=CCC2C1=O (stereo unspecified) |  | inactive: 2.16%
COc1ccc(CCN(C)C2CCCN(C(=O)c3sccc3C)C2)cc1OC (stereo unspecified) |  | inactive: 14.9%

Compound | Potency | activity change, negative = inhibition
CCOC(=O)C(CC)n1cnc2c(nnn2-c2ccc(C)cc2)c1=O (stereo unspecified) | inconclusive: 18.5 µM [inhibitor, single point] | 
O=C(c1ccccc1)N1CCC(c2nc(-c3ccc(S(=O)(=O)N4CCOCC4)cc3)no2)CC1 | inconclusive: 6.57 µM [inhibitor, partial curve, poor fit] | 
CC(=O)Nc1nc(CCN2C(=O)c3ccccc3C2=O)cs1 | inconclusive: 11.7 µM [inhibitor, partial curve, poor fit] | 
COc1ccc(S(=O)(=O)N2CCOCC2)cc1NC(=O)CO/N=C/c1ccccc1OC(F)F | inconclusive: 16.5 µM [inhibitor, single point] | 
O=C(Nc1ccc(-n2ccc(C(F)(F)F)n2)cc1)c1cccs1 | inconclusive: 1.31 µM [inhibitor, full curve, poor fit] | 
CCCOc1ccc(S(=O)(=O)n2cc(Br)c(=O)[nH]c2=O)cc1 | inconclusive: 10.4 µM [inhibitor, single point] | 
O=c1c2ccccc2nc(-c2ccc(Cl)cc2Cl)n1-c1nccs1 | inconclusive: 18.5 µM [inhibitor, single point] | 
CCCCn1c(N)c(N(CC(C)C)C(=O)C2=COCCO2)c(=O)[nH]c1=O |  | inactive: -5.34%
CCOCCOC(=O)c1[nH]c2c(c1C)C(=O)CC(c1ccc(N(C)C)cc1)C2 (stereo unspecified) |  | inactive: 10.5%
CC(OC(=O)c1ccc2ncsc2c1)C(=O)NC1CCCCC1C (stereo unspecified) |  | inactive: 2.34%
Cc1ccc(NC(=O)C2CCCN(S(=O)(=O)c3cnc[nH]3)C2)cc1C (stereo unspecified) | inconclusive: 9.28 µM [inhibitor, single point] | 
COC(=O)/C=C1/SC(=Nc2ccc(C)cc2C)NC1=O | inconclusive: 16.5 µM [inhibitor, partial curve, poor fit] | 
COc1cccc(/C=C2\Sc3ccc(C(=O)NCc4cccnc4)cc3N(C)C2=O)c1 |  | inactive: 19.2%
Cc1ccc(CNC(=O)c2cc(-c3cc(C)cc(C)c3O)n[nH]2)cc1 |  | inactive: 4%
Cc1ccc(CN2CCN(CCC(C)C)C(CCO)C2)s1 (stereo unspecified) | inconclusive: 9.28 µM [inhibitor, single point] | 
CN(Cc1cnn(-c2ccc(F)cc2)c1)Cc1nc(Cc2ccccc2)no1 |  | inactive: 12.3%
Cc1ccc(C(=O)Nc2ccc(N3CCCC3)cc2)c(C)c1 | inconclusive: 18.5 µM [inhibitor, single point] | 
Cc1cnc(NC(=O)c2ccc(F)c(S(=O)(=O)N3CCOCC3)c2)s1 |  | inactive: -42.9%
CCN(CC(=O)NCc1ccc(F)cc1)CC(=O)NC1CCCC1 |  | inactive: 25.4%
Cc1c(NS(=O)(=O)c2ccc(N)cc2)c(=O)n(-c2ccccc2)n1C | inconclusive: 8.28 µM [inhibitor, partial curve] | 
CN1CCC(=O)N([C@H](CC#N)c2ccccc2)CC1 |  | inactive: -0.109%
CC1CCC(NC(=O)c2cccc(S(=O)(=O)NCc3ccccc3)c2)CC1 (stereo unspecified) |  | inactive: -0.668%
CCc1ccc(OCC2c3cc(OC)c(OC)cc3CCN2C(=S)NC)cc1 (stereo unspecified) | inconclusive: 0.185 µM [inhibitor, full curve, poor fit] | 

Reprinted at random: 3 compounds from above, in no set order.
Compound | Potency | activity change, negative = inhibition
Cc1cnc(NC(=O)c2ccc(F)c(S(=O)(=O)N3CCOCC3)c2)s1 |  | inactive: -42.9%
Cc1ccc(CN2CCN(CCC(C)C)C(CCO)C2)s1 (stereo unspecified) | inconclusive: 9.28 µM [inhibitor, single point] | 
O=C(c1ccccc1)N1CCC(c2nc(-c3ccc(S(=O)(=O)N4CCOCC4)cc3)no2)CC1 | inconclusive: 6.57 µM [inhibitor, partial curve, poor fit] | 
